Experimental data taken from paper PMC8384837.
Positions count from the first letter of the chain named. This is one part of the list. For some assays here: At the low end of the ranking the order means little.

Columns and labels:
Settings in all cases: yeast three-hybrid, YBZ-1, SC-Leu-His + 0.5 mM 3-AT, 4 days
[1] = molecular target: T1, PUM1 PUF domain R2-LWY N899L + Y900W + Q903Y (Homo sapiens) (UniProt Q14671)
T1 sequence: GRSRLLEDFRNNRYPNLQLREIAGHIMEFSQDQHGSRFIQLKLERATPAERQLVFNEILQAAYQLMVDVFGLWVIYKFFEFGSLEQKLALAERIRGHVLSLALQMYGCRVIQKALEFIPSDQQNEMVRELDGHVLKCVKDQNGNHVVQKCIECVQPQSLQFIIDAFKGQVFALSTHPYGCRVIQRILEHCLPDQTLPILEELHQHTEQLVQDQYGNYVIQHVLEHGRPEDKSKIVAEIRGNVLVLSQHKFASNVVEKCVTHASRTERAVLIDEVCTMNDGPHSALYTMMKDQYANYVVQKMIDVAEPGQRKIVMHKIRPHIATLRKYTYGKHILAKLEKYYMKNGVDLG

[2] = molecular target: T2, PUM1 PUF domain R2-LYL N899L + Q903L (UniProt Q14671)
T2 sequence: T1 sequence with W73Y, Y76L

[3] = molecular target: T3, PUM1 PUF domain R2-MWG N899M + Y900W + Q903G (UniProt Q14671)
T3 sequence: T1 sequence with L72M, Y76G

[4] = molecular target: T4, PUM1 PUF domain R2-PWE N899P + Y900W + Q903E (UniProt Q14671)
T4 sequence: T1 sequence with L72P, Y76E

[5] = molecular target: T5, PUM1 PUF domain R2-PYE N899P + Q903E (UniProt Q14671)
T5 sequence: T1 sequence with L72P, W73Y, Y76E

[6] = molecular target: T6, PUM1 PUF domain R2-RKA N899R + Y900K + Q903A (Homo sapiens) (UniProt Q14671)
T6 sequence: T1 sequence with L72R, W73K, Y76A

[7] = molecular target: T7, PUM1 PUF domain R2-RKG N899R + Y900K + Q903G (Homo sapiens) (UniProt Q14671)
T7 sequence: T1 sequence with L72R, W73K, Y76G

[8] = molecular target: T8, PUM1 PUF domain R2-RKQ N899R + Y900K (UniProt Q14671)
T8 sequence: T1 sequence with L72R, W73K, Y76Q

[9] = molecular target: T9, PUM1 PUF domain R2-RKV N899R + Y900K + Q903V (UniProt Q14671)
T9 sequence: T1 sequence with L72R, W73K, Y76V

[10] = molecular target: T10, PUM1 PUF domain R2-RKW N899R + Y900K + Q903W (UniProt Q14671)
T10 sequence: T1 sequence with L72R, W73K, Y76W

[11] = molecular target: T11, PUM1 PUF domain R2-RQC N899R + Y900Q + Q903C (UniProt Q14671)
T11 sequence: T1 sequence with L72R, W73Q, Y76C

[12] = molecular target: T12, PUM1 PUF domain R2-RRC N899R + Y900R + Q903C (UniProt Q14671)
T12 sequence: T1 sequence with L72R, W73R, Y76C

[13] = molecular target: T13, PUM1 PUF domain R2-RRH N899R + Y900R + Q903H (Homo sapiens) (UniProt Q14671)
T13 sequence: T1 sequence with L72R, W73R, Y76H

[14] = molecular target: T14, PUM1 PUF domain R2-RRM N899R + Y900R + Q903M (Homo sapiens) (UniProt Q14671)
T14 sequence: T1 sequence with L72R, W73R, Y76M

[15] = molecular target: T15, PUM1 PUF domain R2-RRS N899R + Y900R + Q903S (Homo sapiens) (UniProt Q14671)
T15 sequence: T1 sequence with L72R, W73R, Y76S

[16] = molecular target: T16, PUM1 PUF domain R2-RTQ N899R + Y900T (Homo sapiens) (UniProt Q14671)
T16 sequence: T1 sequence with L72R, W73T, Y76Q

[17] = molecular target: T17, PUM1 PUF domain R2-RVN N899R + Y900V + Q903N (UniProt Q14671)
T17 sequence: T1 sequence with L72R, W73V, Y76N

[18] = molecular target: T18, PUM1 PUF domain R2-RVT N899R + Y900V + Q903T (UniProt Q14671)
T18 sequence: T1 sequence with L72R, W73V, Y76T

[19] = molecular target: T19, PUM1 PUF domain R2-SWG N899S + Y900W + Q903G (UniProt Q14671)
T19 sequence: T1 sequence with L72S, Y76G

[20] = molecular target: T20, PUM1 PUF domain R2-SWP N899S + Y900W + Q903P (Homo sapiens) (UniProt Q14671)
T20 sequence: T1 sequence with L72S, Y76P

GGCUAGAACUAGUGGAUCCCCCGGCGCCCGGCGGCUCGAGCCCGGGUAAGUGUAAAUAGUCUGCAUGCCGCCGGGCGCCAUGCCUGCAGGUCGACUCUAGAAAACAUG
binding signal (log2 enrichment (interaction score)) [1]: -4.18
binding signal (log2 enrichment (interaction score)) [2]: < -6.48
binding signal (log2 enrichment (interaction score)) [3]: < -6.63
binding signal (log2 enrichment (interaction score)) [4]: < -7.06
binding signal (log2 enrichment (interaction score)) [5]: < -7.36
binding signal (log2 enrichment (interaction score)) [6]: -6.26
binding signal (log2 enrichment (interaction score)) [7]: -2.41
binding signal (log2 enrichment (interaction score)) [8]: < -7.08
binding signal (log2 enrichment (interaction score)) [9]: -7.13
binding signal (log2 enrichment (interaction score)) [10]: < -7.94
binding signal (log2 enrichment (interaction score)) [11]: < -6.11
binding signal (log2 enrichment (interaction score)) [12]: < -9.21
binding signal (log2 enrichment (interaction score)) [13]: -4.29
binding signal (log2 enrichment (interaction score)) [14]: -0.81
binding signal (log2 enrichment (interaction score)) [15]: -3.6
binding signal (log2 enrichment (interaction score)) [16]: -0.18
binding signal (log2 enrichment (interaction score)) [17]: < -7.41
binding signal (log2 enrichment (interaction score)) [18]: < -9.04
binding signal (log2 enrichment (interaction score)) [19]: -5.83
binding signal (log2 enrichment (interaction score)) [20]: -4.34
